Assay results reported in patent US20180273595A1.
No constants are given. Whether binding was seen depends on the method and setting. Some results given as binding are weak or reduced against the parent protein; the word gives no strength.

Chains of the proteins cited; added tags and fusions are not shown.
UniProt P11308: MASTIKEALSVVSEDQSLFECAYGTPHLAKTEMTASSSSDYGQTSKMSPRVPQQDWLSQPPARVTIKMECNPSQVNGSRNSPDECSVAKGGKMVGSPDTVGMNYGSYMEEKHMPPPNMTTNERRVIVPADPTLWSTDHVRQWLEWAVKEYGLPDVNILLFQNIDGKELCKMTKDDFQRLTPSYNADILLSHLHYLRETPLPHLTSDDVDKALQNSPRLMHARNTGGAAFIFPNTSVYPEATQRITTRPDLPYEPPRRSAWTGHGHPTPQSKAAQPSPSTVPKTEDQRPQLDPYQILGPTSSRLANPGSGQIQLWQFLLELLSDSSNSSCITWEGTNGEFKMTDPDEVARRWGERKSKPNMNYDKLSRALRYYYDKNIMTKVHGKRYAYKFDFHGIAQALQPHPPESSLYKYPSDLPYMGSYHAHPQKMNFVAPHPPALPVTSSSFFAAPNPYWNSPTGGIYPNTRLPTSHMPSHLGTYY

B1: EIP2 synthetic peptide LSFGSLP (peptide)
peptide: LSFGSLP
B2: 5PT-N (NH2-PYLFT-NH2) (peptide)
peptide: PYLFT
modifications: free N-terminus, amide at the C-terminus

Tests used:
[1] = target: recombinant His-tagged full-length ERG (UniProt P11308); experiment: OctetRED BLI
[2] = target: recombinant His-tagged full-length ERG (UniProt P11308); experiment: OctetRed, FIG. 14

| Binder | binding [1] | binding [2] |
| --- | --- | --- |
| B1 | binds |  |
| B2 |  | binds |
